Measured values as given in patent US20230099204A1, “PHARMACEUTICAL COMPOSITION FOR PREVENTION OR TREATMENT OF CANCER IN WHICH KRAS MUTATION AND ACTIVATED RON ARE PRESENT” (WELLMARKER BIO CO., LTD., priority 2020, published 2023).
Some results were stated once for a whole list of compounds, not compound by compound.

What follows are molecules tested on colorectal cancer cell line (assay: MTS assay, summary over the colorectal cancer cell lines). Conditions: summary in words of Table 1.
Format: cell-based
Experimental: MTS assay was performed to compare cytotoxicity of the compounds of Example 1, Example 2, Example 3, Example 4, Example 5, Example 6, and positive control 1 on a colorectal cancer cell line, and a cell death rate of the colorectal cancer cell line was analyzed to compare anticancer activity of the compounds.
The MTS assay was performed by seeding each colorectal cell line in a 96-well plate at 1,000 cells per well, and after 24 hours, performing treatment with the compounds of Examples 1 to 6 and positive control 1 at various concentrations (0.000001 μM to 10 μM) in 100 μL of 10% FBS-RPMI medium (WELGENE Inc.) per well. The cells were incubated for 72 hours. Then, 20 μL of MTS solution (Promega) was added thereto, and the cells were incubated for 2 hours. Then, the absorbance was measured at 490 nm. The IC50 values for the compounds of Examples 1 to 6 and positive control 1 were calculated using GraphPad Prism™ 5 to investigate cytotoxicity.

SMILES	efficiency / response in MTS assay over the cell lines
CCOc1ccn(-c2ccc(F)cc2)c(=O)c1C(=O)Nc1ccc(Oc2ccnc3cc(-c4ccc(CN5CCOCC5)cn4)sc23)c(F)c1.Cl [Example 1, 4-ethoxy-N-[3-fluoro-4-({2-[5-(morpholinomethyl)pyridine-2-yl]thieno[3,2-b]pyridine-7-yl}oxy)phenyl]-1-(4-fluorophenyl)-2-oxo-1,2-dihydropyridine-3-carboxamide hydrochloride]	high efficiency in most cell lines except for SNUC2A
COc1cc2c(Oc3ccc(NC(=O)c4c5c(cn(-c6ccc(F)cc6)c4=O)CCO5)cc3F)ccnc2cc1OCCN1CCOCC1 [Example 5, N-(3-fluoro-4-((6-methoxy-7-(2-morpholinoethoxy)quinolin-4-yl)oxy)phenyl)-5-(4-fluorophenyl)-6-oxo-2,3,5,6-tetrahydrofuro[3,2-c]pyridine-7-carboxamide]	high efficiency in most cell lines except for SNUC2A
COc1cc2c(Oc3ccc(NC(=O)c4c5c(cn(-c6ccc(F)cc6)c4=O)CCO5)cc3F)ccnc2cc1OCCCN1CC(C#N)C1 [Example 6, N-(4-((7-(3-(3-cyanoazetidine-1-yl)propoxy)-6-methoxyquinoline-4-yl)oxy)-3-fluorophenyl)-5-(4-fluorophenyl)-6-oxo-2,3,5,6-tetrahydrofuro[3,2-c]pyridine-7-carboxamide]	high efficiency in most cell lines except for SNUC2A
CCOc1ccn(-c2ccccc2)c(=O)c1C(=O)Nc1ccc(Oc2ccnc3cc(-c4ccc(CN5CCN(C)CC5)cn4)sc23)c(F)c1.Cl [Example 3, 4-ethoxy-N-{3-fluoro-4-[(2-{5-[(4-methylpiperazin-1-yl)methyl]pyridin-2-yl}thieno[3,2-b]pyridin-7-yl)oxy]phenyl}-2-oxo-1-phenyl-1,2-dihydropyridine-3-carboxamide hydrochloride]	high efficiency in most cell lines except for SNUC2A
CCOc1ccn(-c2ccccc2)c(=O)c1C(=O)Nc1ccc(Oc2ccnc3cc(-c4ccc(CNCCOC)cn4)sc23)c(F)c1.Cl [Example 2, 4-ethoxy-N-(3-fluoro-4-{[2-(5-{[(2-methoxyethyl)amino]methyl}pyridine-2-yl)thieno[3,2-b]pyridine-7-yl]oxy}phenyl)-2-oxo-1-phenyl-1,2-dihydropyridine-3-carboxamide hydrochloride]	high efficiency in most cell lines except for SNUC2A
Cn1cnc(-c2cc3nccc(Oc4ccc(NC(=O)c5c6c(cn(-c7ccc(F)cc7)c5=O)CCO6)cc4F)c3s2)c1 [Example 4]	high efficiency in most cell lines except for SNUC2A
